# Laboratory results published in PubChem BioAssay AID1487 (National Center for Advancing Translational Sciences (NCATS), 2009).
# This is one part of the list. Shown are side measurements of this screen, not its main read-out; they come without a call. Compounds called inactive in the main read-out are mostly missing here. Words in brackets tell the shape of the fitted curve; partial curves, single points and poor fits give uncertain potencies.
# Experiment: qHTS Assay for Modulators of Lamin A Splicing
# Details: HeLa LMNA splicing GFP/RFP minigene ratio, 48 h
# Procedure, shortened: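 Read-out is the ratio of GFP to DsRed2 object intensity, acquired by 488 nm laser-scanning cytometry on HeLa lamin A-EGFP minigene reporter cells. Compound incubation 48 hrs at 37 °C in Opti-MEM with 2% FBS; DMSO 0.5% final.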
# [1] = measured here: RFP viability control channel
# [2] = measured here: GFP splicing reporter channel
SMILES,AC50 [1],AC50 [2]
CCNC(=S)N/N=C/c1ccccc1[N+](=O)[O-],"5.01 µM [rising, partial curve]",
Cc1ccc2[nH]c(-c3cccc(F)c3)cc(=O)c2c1,"2.82 µM [rising, partial curve]","28.2 µM [rising, single point]"
COc1ccc(CN(C)Cc2nc(Cc3cccc(F)c3)no2)c2cccnc12,,"0.0891 µM [falling, full curve, poor fit]"
CCOC(=O)COc1cccc2c(=O)n(CC(=O)NCc3ccc4c(c3)OCO4)ccc12,"3.98 µM [rising, full curve]",
O=[N+]([O-])c1ccc(Sc2ccc(Cl)c(Cl)c2)nc1,"35.5 µM [falling, single point]","22.4 µM [falling, single point]"
O=C(c1ccc2ccccc2c1)N1CCN(c2ccc(C(F)(F)F)cn2)CC1,"15.8 µM [rising, single point]",
CCOc1cc(CNC(=O)C2COc3ccccc3C2)cc(OCC)c1OCC (configuration not stated),,"35.5 µM [falling, single point]"
O=C1NC(=Nc2ccc(Cl)cc2)/C(=C/c2ccco2)S1,,"17.8 µM [rising, single point]"
CN(C)S(=O)(=O)c1ccc(C(=O)Nc2nnc(-c3ccc4c(c3)CCCC4)o2)cc1,"3.16 µM [rising, full curve]",
Cc1ccc(C)c(N2CCN(CCCNC(=O)c3cnn(-c4ccccc4Cl)c3C3CCN(C(=O)OC(C)(C)C)CC3)CC2)c1,"15.8 µM [falling, single point]",
CC1CCCCC1NC(=O)COC(=O)/C=C/c1ccc2c(c1)OCO2 (configuration not stated),,"0.0501 µM [falling, full curve, poor fit]"
Cc1cc(C)c(NC(=O)Cn2c(=O)n(-c3ccc(CC(=O)NCC4CCCO4)cc3)c(=O)c3ccccc32)c(C)c1 (configuration not stated),"35.5 µM [falling, single point]","31.6 µM [falling, single point]"
Cc1cc(CC(C)C)n(-c2nc3ccccc3c(=O)n2OCC(N)=O)n1,"35.5 µM [rising, single point]",
Cc1ccc(Cl)cc1N1CCN(Cc2nc3c(c(=O)[nH]c(=O)n3C)n2Cc2ccccc2F)CC1,"22.4 µM [falling, single point]","35.5 µM [falling, single point]"
CC(C)(C)c1ccc(C(=O)NNC(=S)NCC2CCCO2)cc1 (configuration not stated),"22.4 µM [rising, single point]","15.8 µM [rising, single point]"
Clc1cccc(-c2ccc(/C=N/n3cnnc3)o2)c1Cl,"3.98 µM [falling, full curve]","3.16 µM [falling, full curve]"
CN1C(=O)/C(=C/c2cn(CC(=O)N3CCCCC3)c3ccccc23)c2ccccc21,"15.8 µM [rising, single point]","14.1 µM [rising, single point]"
COC(=O)c1ccc(CSc2nc3c([nH]c4ccccc43)c(=O)n2-c2ccc(Cl)cc2)o1,"11.2 µM [falling, partial curve, poor fit]",

# Single records, from the list above.
# `O=[N+]([O-])c1ccc(Sc2ccc(Cl)c(Cl)c2)nc1` reads AC50 [1]: 35.5 µM [falling, single point]; AC50 [2]: 22.4 µM [falling, single point]
# `Cc1ccc2[nH]c(-c3cccc(F)c3)cc(=O)c2c1` reads AC50 [1]: 2.82 µM [rising, partial curve]; AC50 [2]: 28.2 µM [rising, single point]
# `O=C(c1ccc2ccccc2c1)N1CCN(c2ccc(C(F)(F)F)cn2)CC1` reads AC50 [1]: 15.8 µM [rising, single point]

# Going on with the list.

SMILES,AC50 [1],AC50 [2]
CN(C)c1ccc(C(CNS(=O)(=O)c2ccc(F)cc2)c2c[nH]c3ccccc23)cc1 (configuration not stated),"35.5 µM [rising, single point]","35.5 µM [rising, single point]"
CCc1nnc(N/N=C/c2c(C)[nH]c3ccccc23)n1N,,"0.112 µM [rising, full curve, poor fit]"
CC1=NN(/C(=N\c2nnc(C)s2)Nc2ccc(C(C)(C)C)cc2)[C@H](c2ccc(C)cc2)S1,"35.5 µM [rising, single point]",
CC(C)(C)C(=O)/C(=C\c1ccc([N+](=O)[O-])cc1)n1cncn1,"3.55 µM [rising, partial curve]","5.62 µM [falling, single point]"
COc1cccc(C(C)N(C)Cc2nc(-c3ccoc3)oc2C)c1 (configuration not stated),"4.47 µM [falling, partial curve, poor fit]",
Cc1ccc(-c2nc(C)sc2CC(=O)Nc2nnc(C)s2)cc1,,"20 µM [falling, partial curve, poor fit]"
CC1Cc2ccccc2N1S(=O)(=O)c1cccc(C(=O)c2nccn2C)c1 (configuration not stated),"35.5 µM [rising, single point]",
CC(=O)c1ccc(CCCCCCCCCC(=O)O)s1,"5.62 µM [falling, single point]",
CCCOc1ccc(C(O)(CCC)CCN2CCCCC2)cc1 (configuration not stated),"11.2 µM [rising, partial curve, poor fit]",
Cc1cccc(C)c1OCC(C)N (configuration not stated),"0.0112 µM [falling, full curve, poor fit]","0.00794 µM [falling, full curve, poor fit]"
CC(=O)N(C(C)=O)N1C(=O)c2cccc3c(N4CCOCC4)ccc(c23)C1=O,"15.8 µM [rising, single point]",
c1cncc(-c2nc(-c3ccc4c(c3)OCO4)cs2)c1,"0.178 µM [falling, partial curve]",
CCc1ccc(CNc2ncnc3c2nc2n3CCCC2)cc1,,"10 µM [falling, partial curve]"
O=C(COC(=O)/C=C/c1ccc(OC(F)F)cc1)NCc1cccs1,"6.31 µM [falling, single point]",
COc1ccc(-c2nn(-c3ccccc3)cc2/C=N/Nc2ccc3ccccc3n2)cc1OC,"35.5 µM [rising, single point]","31.6 µM [rising, single point]"
Clc1ccccc1SCc1nc2ccccc2[nH]1,"12.6 µM [rising, partial curve, poor fit]",
CC(C)CCNC(=S)Nc1ccc2nc3n(c(=O)c2c1)CCCCC3,"12.6 µM [rising, single point]",
Cc1ccc(OCc2ccc(C(=O)O)o2)c([N+](=O)[O-])c1,"0.112 µM [rising, full curve]",
